In article PMC6166740:
No constants are given. Whether binding was seen depends on the method and setting. Binding seen in cells or lysates may run through a third protein. Some binding calls cover weakened binding; strength is not graded here. Sequences can lack the tags named with a protein.

Molecular target: T1, WDR19 (UniProt Q8NEZ3)
T1 sequence: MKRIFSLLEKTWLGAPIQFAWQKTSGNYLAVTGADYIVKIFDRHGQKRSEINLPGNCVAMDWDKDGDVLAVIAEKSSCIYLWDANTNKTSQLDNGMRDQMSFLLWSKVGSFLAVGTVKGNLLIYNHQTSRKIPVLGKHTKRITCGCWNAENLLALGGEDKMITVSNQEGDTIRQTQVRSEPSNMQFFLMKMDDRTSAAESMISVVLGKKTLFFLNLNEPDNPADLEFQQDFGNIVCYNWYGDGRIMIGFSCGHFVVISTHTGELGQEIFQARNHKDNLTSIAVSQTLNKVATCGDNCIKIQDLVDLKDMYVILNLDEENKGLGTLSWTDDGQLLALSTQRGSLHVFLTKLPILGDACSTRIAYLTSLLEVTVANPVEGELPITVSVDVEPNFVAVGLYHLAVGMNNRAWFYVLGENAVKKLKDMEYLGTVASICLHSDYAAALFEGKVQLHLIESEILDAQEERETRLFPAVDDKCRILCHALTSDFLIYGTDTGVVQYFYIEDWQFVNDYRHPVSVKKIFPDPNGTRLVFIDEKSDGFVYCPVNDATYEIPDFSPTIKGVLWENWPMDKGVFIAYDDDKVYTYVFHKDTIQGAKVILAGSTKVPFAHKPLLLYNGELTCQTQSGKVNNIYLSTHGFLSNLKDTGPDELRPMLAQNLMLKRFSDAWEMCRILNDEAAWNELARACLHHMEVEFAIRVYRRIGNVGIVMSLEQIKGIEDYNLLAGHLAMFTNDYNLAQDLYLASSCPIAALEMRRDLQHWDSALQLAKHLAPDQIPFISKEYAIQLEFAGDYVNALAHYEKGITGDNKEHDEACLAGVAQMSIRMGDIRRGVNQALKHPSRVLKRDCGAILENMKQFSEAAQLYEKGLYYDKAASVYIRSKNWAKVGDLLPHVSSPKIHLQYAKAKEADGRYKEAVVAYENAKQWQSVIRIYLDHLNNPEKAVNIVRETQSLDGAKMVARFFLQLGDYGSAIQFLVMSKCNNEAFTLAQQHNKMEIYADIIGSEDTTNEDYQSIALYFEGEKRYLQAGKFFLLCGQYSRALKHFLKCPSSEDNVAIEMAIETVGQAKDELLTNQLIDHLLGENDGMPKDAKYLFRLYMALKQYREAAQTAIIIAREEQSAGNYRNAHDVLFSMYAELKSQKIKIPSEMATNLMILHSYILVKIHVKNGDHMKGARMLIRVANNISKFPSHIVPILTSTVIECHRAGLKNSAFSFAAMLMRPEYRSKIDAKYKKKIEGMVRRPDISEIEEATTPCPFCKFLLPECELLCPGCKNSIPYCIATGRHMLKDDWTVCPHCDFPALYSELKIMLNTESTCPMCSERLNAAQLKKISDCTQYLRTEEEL
Assay: co-IP; Figure S1A, legend not shown; method taken from the paper's only described test of pairs (co-IP from transfected HEK293T cells)

B1: V5-tagged ANKS6 (ankyrin repeat and sterile alpha motif domain-containing 6) (protein, UniProt Q68DC2 1-871)
chain: MGEGGLPPAFQLLLRACDQGDTETARRLLEPGAAEPAERGAEPEAGAEPAGAEVAGPGAAAAGAVGAPVPVDCSDEAGNTALQFAAAGGHEPLVRFLLRRGASVNSRNHYGWSALMQAARFGHVSVAHLLLDHGADVNAQNRLGASVLTVASRGGHLGVVKLLLEAGAFVDHHHPSGEQLGLGGSRDEPLDITALMAAIQHGHEAVVRLLMEWGADPNHAARTVGWSPLMLAALTGRLGVAQQLVEKGANPDHLSVLEKTAFEVALDCKHRDLVDYLDPLTTVRPKTDEEKRRPDIFHALKMGNFQLVKEIADEDPSHVNLVNGDGATPLMLAAVTGQLALVQLLVERHADVDKQDSVHGWTALMQATYHGNKEIVKYLLNQGADVTLRAKNGYTAFDLVMLLNDPDTELVRLLASVCMQVNKDKGRPSHQPPLPHSKVRQPWSIPVLPDDKGGLKSWWNRMSNRFRKLKLMQTLPRGLSSNQPLPFSDEPEPALDSTMRAAPQDKTSRSALPDAAPVTKDNGPGSTRGEKEDTLLTTMLRNGAPLTRLPSDKLKAVIPPFLPPSSFELWSSDRSRTRHNGKADPMKTALPQRASRGHPVGGGGTDTTPVRPVKFPSLPRSPASSANSGNFNHSPHSSGGSSGVGVSRHGGELLNRSGGSIDNVLSQIAAQRKKAAGLLEQKPSHRSSPVGPAPGSSPSELPASPAGGSAPVGKKLETSKRPPSGTSTTSKSTSPTLTPSPSPKGHTAESSVSSSSSHRQSKSSGGSSSGTITDEDELTGILKKLSLEKYQPIFEEQEVDMEAFLTLTDGDLKELGIKTDGSRQQILAAISELNAGKGRERQILQETIHNFHSSFESSASNTRAPGNSPCA
binding: binds
